We go through one molecule from patent US20150044251A1 (Novartis, published 2015).

By UniProt entry, the sequences of proteins in these tests, tags left out. Where a name states a change or a piece, a line headed by the entry shows the natural chain unless it says otherwise.
UniProt Q2FKG1: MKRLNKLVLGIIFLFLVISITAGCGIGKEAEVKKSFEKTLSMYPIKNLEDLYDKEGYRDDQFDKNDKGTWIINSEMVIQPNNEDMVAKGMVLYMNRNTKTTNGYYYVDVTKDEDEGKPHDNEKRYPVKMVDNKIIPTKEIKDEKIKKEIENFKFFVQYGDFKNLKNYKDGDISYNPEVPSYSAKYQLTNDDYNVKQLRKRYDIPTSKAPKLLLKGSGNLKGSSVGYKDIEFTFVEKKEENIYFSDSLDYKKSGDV

This experiment deals with Sta011 (Staphylococcus aureus) (UniProt Q2FKG1). Nature of the experiment: capillary electrophoresis (SDS-MW) of tetravalent formulation, pH 6, no EDTA, 25 C up to 72 h; attributed to redox reactions.

These are yes or no findings as the source states them, for the method shown. Some entries that bind do so weakly or less than the wild type.

B1: EsxAB hybrid polypeptide (other)
chain: MAMIKMSPEEIRAKSQSYGQGSDQIRQILSDLTRAQGEIAANWEGQAFSRFEEQFQQLSPKVEKFAQLLEEIKQQLNSTADAVQEQDQQLSNNFGLQASGGGSGGYKGIKADGGKVDQAKQLAAKTAKDIEACQKQTQQLAEYIEGSDWEGQFANKVKDVLLIMAKFQEELVQPMADHQKAIDNLSQNLAKYDTLSIKQGLDRVNP
notes: also called EsxAB monomer
On to B1, for which the binding entry was “binds”.
